# Laboratory results: PubChem BioAssay AID743266 (National Center for Advancing Translational Sciences (NCATS), 2014)
# Sequences of proteins named here, by UniProt entry; tags and fusion partners are left off. A change or cut given only in a name is not applied to a line headed by its entry.
# UniProt Q03431: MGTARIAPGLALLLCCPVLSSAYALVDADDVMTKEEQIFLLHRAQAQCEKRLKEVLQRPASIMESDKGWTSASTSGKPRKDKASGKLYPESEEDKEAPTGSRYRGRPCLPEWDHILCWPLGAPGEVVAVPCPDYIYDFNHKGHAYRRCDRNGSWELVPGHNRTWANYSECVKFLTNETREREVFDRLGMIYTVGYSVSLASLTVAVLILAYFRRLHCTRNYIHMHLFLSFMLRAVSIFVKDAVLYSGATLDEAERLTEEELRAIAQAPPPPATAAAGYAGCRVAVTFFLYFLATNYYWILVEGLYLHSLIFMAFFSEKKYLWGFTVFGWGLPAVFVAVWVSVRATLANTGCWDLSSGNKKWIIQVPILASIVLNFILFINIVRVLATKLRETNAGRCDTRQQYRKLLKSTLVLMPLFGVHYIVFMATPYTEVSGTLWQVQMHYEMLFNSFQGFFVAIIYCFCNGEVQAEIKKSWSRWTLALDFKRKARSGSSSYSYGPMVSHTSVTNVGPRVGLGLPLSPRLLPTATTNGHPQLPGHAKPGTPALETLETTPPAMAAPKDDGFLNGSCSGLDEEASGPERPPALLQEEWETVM
# Out of some 410,000 compounds screened, about 310 (0.076%) were called active. The inconclusive results got no clear call from the source; some entries with a clear call stand among them for comparison. The call rests on the fitted dose curve; in most records, active means well fitted activation curve with a large enough effect; inconclusive means small, poorly fitted or top-dose-only effect, or another doubt; inactive means no such curve, though single readings can be large or run the other way. Potencies of inconclusive entries are doubtful fits and often do not repeat.
# Molecular target: Parathyroid hormone/parathyroid hormone-related peptide receptor (Homo sapiens) (UniProt Q03431)
# Assay: qHTS for PTHR1 Agonists: Primary Screen; further: nearly all actives have a fitted effect of over 55% in size
# Conditions: HEK293 GP2 PTHR1 cells, GloSensor cAMP luminescence, 1 h; activation: at 115 µM (top of the series) unless noted; series mostly up to 115 µM
# Outline: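 HEK-293-derived GP2 cells expressing PTHR1 and a GloSensor cAMP reporter, 3,000/well, plated overnight, given luciferin plus IBMX (each 0.5 mM as added) for 1 h at 37 °C, then compound for 1 h at 37 °C. Luminescence was read after 15 min at room temperature.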
# Potency means the concentration at half of the fitted maximal effect.
Compound,Potency,activation
COc1ccc(OC)c(NC(=O)N2c3ccccc3Sc3ccccc32)c1,"inconclusive: 1.26 µM [activator, partial curve, poor fit]",–
CC(C)n1cc(NC(=O)C2CC(c3cccc(Br)c3)=NO2)cn1 (configuration not stated),"inconclusive: 22.4 µM [activator, single point]",–
CCOc1ccc(NC(=O)Cc2nnc(SCC(=O)N3CCOCC3)n2C)cc1,–,inconclusive: 31.9% [activator]
CNc1cncc(-c2cc(OC)ccc2OC)n1,"inconclusive: 79.4 µM [activator, partial curve, poor fit]",–
COc1ccc(CCNC(=O)CCn2c(=O)c3cccn3c3cccnc32)c(OC)c1OC,"inconclusive: 39.8 µM [activator, partial curve, poor fit]",–
COCCNCCCOc1ccc(C(C)(C)c2ccccc2)cc1,inactive,–
CC1CCN(c2nc3c(c(=O)n(C)c(=O)n3C)n2Cc2ccccc2)CC1,"inconclusive: 35.5 µM [activator, single point]",–
Cn1ncc(Cl)c1C(=O)N1CCN(C23CC4CC(CC(C4)C2)C3)CC1,"inconclusive: 126 µM [activator, single point]",–
C=CCNC(=O)c1ccc(OC)cc1,"inconclusive: 79.4 µM [activator, partial curve, poor fit]",–
CCC(=O)n1nc(-c2ccc(Cl)cc2)nc1SC,inactive,–
COc1cccc(-c2nn(-c3ccccc3)cc2C(=O)O)c1,"inconclusive: 2.82 µM [activator, single point]",–
COc1ccc(OC)c(CNC(=O)C2CCN(c3ncnc4c3nc3n4CCCCC3)CC2)c1,–,inconclusive: 44.2% [activator]
O=C(CCC(=O)NC1CCCCCCC1)Nc1nnc(C(F)(F)F)s1,"inconclusive: 22.4 µM [activator, single point]",–
COc1ccc(/C(C)=C2/SC(=S)N(CCC(=O)O)C2=O)cc1,"inconclusive: 39.8 µM [activator, single point]",–
CCOC(=O)c1cc(-c2ccccc2)n(-c2cccc(C(=O)N(CC)c3ccccc3)c2)c1C,"inconclusive: 44.7 µM [activator, partial curve, poor fit]",–
COc1ccc(S(=O)(=O)Nc2c(NC3CCCCC3)c3ccccc3oc2=O)cc1Cl,"inconclusive: 89.1 µM [activator, partial curve, poor fit]",–
O=C(CSc1n[nH]c(=O)n1-c1ccccc1)Nc1ccccc1,"inconclusive: 0.891 µM [activator, full curve, poor fit]",–
O=C(Nc1cccc(C(F)(F)F)c1)C1Cc2c(-c3ccccc3)ccnc2O1 (configuration not stated),inactive,–
Cc1coc2cc3oc(=O)c(CCC(=O)NCC(=O)O)c(C)c3cc12,"inconclusive: 56.2 µM [activator, partial curve, poor fit]",–
CCOC(=O)c1c(Nc2ccc(Cl)cc2)sc(/C=C2\C=Nc3ccccc32)c1O,"inconclusive: 35.5 µM [activator, single point]",–
CCOC(=O)C(=O)Nc1c(C(=O)Nc2cccc(F)c2)oc2ccccc12,"inconclusive: 50.1 µM [activator, partial curve, poor fit]",–
O=C(Cn1nnc2ccccc21)Nc1ccccc1[N+](=O)[O-],"inconclusive: 141 µM [activator, single point]",–
Cc1ccc(NC(=O)c2nnn(-c3ccc4c(c3)OCCO4)c2N)cc1,inactive,–

Compound,Potency,activation
CC1=CC(C)(C)N(S(=O)(=O)c2ccc(C)cc2)c2cc(C)ccc21,"inconclusive: 39.8 µM [activator, single point]",–
C/C(CC(=O)Nc1cc(C)ccn1)=N\NC(=O)c1cccc(C)c1,"inconclusive: 22.4 µM [activator, full curve, poor fit]",–
O=C(O)c1cc(-c2ccco2)nc2ccc(Br)cc12,inactive,–
Cc1ccc(C)c(OCC(=O)NCCN(C)C)c1,"inconclusive: 39.8 µM [activator, single point]",–
CC(C)c1ccc(NC2=CC(=O)CC(C)(C)C2)cc1,–,inconclusive: 30.7% [activator]
COc1cccc(CNCCc2c[nH]c3ccccc23)c1OCc1ccccc1,inactive,–
Cc1ccc(-c2nnc(Sc3nc4ccccc4o3)c3ccccc23)cc1,–,inconclusive: 59.5% [activator] [at 57.5 µM]
CCOc1ccc(CCNC(=O)c2cc(=O)[nH]c3ccc(S(=O)(=O)N4CCCCC4)cc23)cc1OCC,–,inconclusive: 33.5% [activator]
COc1ccc(NC(=O)CC2SC(=NCc3ccccc3OC)NC2=O)cc1 (configuration not stated),"inconclusive: 3.55 µM [activator, full curve, poor fit]",–
CCN(c1ccccc1)S(=O)(=O)c1ccc(C(=O)NC2CCN(Cc3ccccc3)CC2)cc1,inactive,–
O=C(O)CCn1cnc2onc(-c3ccccc3Cl)c2c1=O,"inconclusive: 50.1 µM [activator, partial curve, poor fit]",–
Cc1cccn2c(=O)cc(COc3ccc(NC(=O)c4cccc(F)c4)cc3)nc12,"inconclusive: 126 µM [activator, single point]",–
COc1ccc(/C(N)=N/OC(=O)c2cccs2)cc1,inactive,–
COc1ccc(NC(=O)CSc2nc(O)c(C/C=C/c3ccccc3)c(=O)[nH]2)cc1,"inconclusive: 22.4 µM [activator, partial curve, poor fit]",–
CC(C)CC(c1nnnn1C(C)(C)C)N1CCN(Cc2ccccc2)CC1 (configuration not stated),inactive,–
CCCCC(=O)Oc1ccccc1C1SCc2cc(C)c(C)cc2CS1,inactive,–
CCOC(=O)c1ccc(-c2ccc(/C=C(\C#N)C(=O)NCc3cccs3)o2)cc1,inactive,–
COc1ccc(NC(=O)C(=O)NCc2ccco2)c(OC)c1,inactive,–
CN(CC(=O)Nc1ccccc1C(F)(F)F)C(=O)C1CC1,"inconclusive: 112 µM [activator, partial curve, poor fit]",–
COc1ccc(C2=NN(C(=O)COC(=O)c3ccc(S(C)(=O)=O)c([N+](=O)[O-])c3)C(c3ccco3)C2)cc1 (configuration not stated),inactive,–
CC(C)(C)c1ccc(C(=O)NNC(=S)NC(=O)c2cccnc2)cc1,inactive,–
CC(=O)c1cc(-c2ccccc2)n(CCC(=O)NC2CCCCC2)c1C,"inconclusive: 31.6 µM [activator, partial curve, poor fit]",–
Cc1ccccc1CNC(=O)c1csc([C@@H]2C[C@H](O)[C@@H](CO)O2)n1,–,inconclusive: -1.08% [activator]

# Molecules shown so far containing bromine:
Compound,Potency,activation
CC(C)n1cc(NC(=O)C2CC(c3cccc(Br)c3)=NO2)cn1 (configuration not stated),"inconclusive: 22.4 µM [activator, single point]",–
O=C(O)c1cc(-c2ccco2)nc2ccc(Br)cc12,inactive,–

# Remaining list, next part:

Compound,Potency,activation
c1ccc(CN2CCC3(CC2)Nc2ccccc2CO3)cc1,"inconclusive: 17.8 µM [activator, partial curve, poor fit]",–
CCC(C)(C)NC(=O)C(c1ccc(C)o1)N(Cc1cccs1)C(=O)Cn1nnc2ccccc21 (configuration not stated),inactive,–
CCOC(=O)/C=C/C(=O)OCc1csc(CC(=O)Nc2ccccc2C)n1,"inconclusive: 89.1 µM [activator, single point]",–
Cc1ccccc1C(=O)Nc1cccc(C(=O)N/N=C/c2cc(Cl)cc([N+](=O)[O-])c2O)c1,inactive,–
CCOc1ccccc1NC(=O)Nc1ccsc1C(=O)OC,"inconclusive: 44.7 µM [activator, partial curve, poor fit]",–
O=C(OCC(=O)N1CCN(C(=O)c2ccco2)CC1)C1=COCCO1,"inconclusive: 0.158 µM [activator, full curve, poor fit]",–
N#CC1=C(N)Oc2c(ccc3ccccc23)C1c1cccs1 (configuration not stated),"inconclusive: 31.6 µM [activator, full curve, poor fit]",–
CN(Cc1cccnc1)Cc1cn(C)nc1-c1cccc(Cl)c1,"inconclusive: 141 µM [activator, single point]",–
Cc1nnc(SCC(=O)NNC(=O)c2ccccc2)n1N,"inconclusive: 56.2 µM [activator, single point]",–
CCN(CC)CCN1C2=C(C(=O)CC(C)(C)C2)C(c2cccc(F)c2)C2=C1CC(C)(C)CC2=O,"inconclusive: 44.7 µM [activator, single point]",–
Cc1[nH]n(-c2ccccc2)c(=O)c1/C=N/NC(=O)c1ccccc1F,"inconclusive: 1.78 µM [activator, full curve, poor fit]",–
CCOC(=O)c1c(S(=O)(=O)N2CCN(c3cccc(C(F)(F)F)c3)CC2)c(C)n(C)c1C,inactive,–
CCc1nnc(NS(=O)(=O)c2ccc(NC(=O)/C=C/C(=O)O)cc2)s1,"inconclusive: 28.2 µM [activator, single point]",–
CCCc1cc(=O)[nH]c(SCc2nc(-c3ccccc3)no2)n1,inactive,–
COC(CN(C(=O)CCl)C(C(=O)NC1CCCCC1)c1ccccc1C)OC (configuration not stated),inactive,–
COc1cc(/C=N/NC(N)=S)ccc1OCC(=O)Nc1ccc(C)c(C)c1,"inconclusive: 39.8 µM [activator, single point]",–
CN(C)c1cc[n+](CC(=O)Nc2cc(C(F)(F)F)ccc2Cl)cc1,"inconclusive: 28.2 µM [activator, partial curve, poor fit]",–
Cc1ccc2c(CC(=O)Nc3ccc(S(=O)(=O)N4CCCC(C)C4)cc3)coc2c1 (configuration not stated),inactive,–
C[C@H](CO)N1C[C@H](C)[C@@H](CN(C)S(=O)(=O)c2ccccc2)Oc2ccc(NC(=O)Cn3cnnn3)cc2C1=O,inactive,–
Fc1ccc(-n2nc(-c3ccccc3)c3cnc4ccccc4c32)cc1Cl,"inconclusive: 39.8 µM [activator, partial curve, poor fit]",–
COc1cc2c(cc1OC)C(C)N(C(=O)c1cc3ccccc3o1)CC2 (configuration not stated),–,inconclusive: -35.1% [activator] [at 57.5 µM]

# Copied from the list.
# For Potency, CCOC(=O)/C=C/C(=O)OCc1csc(CC(=O)Nc2ccccc2C)n1 shows inconclusive: 89.1 µM [activator, single point]
# For Potency, O=C(OCC(=O)N1CCN(C(=O)c2ccco2)CC1)C1=COCCO1 shows inconclusive: 0.158 µM [activator, full curve, poor fit]
# For Potency, COc1cc(/C=N/NC(N)=S)ccc1OCC(=O)Nc1ccc(C)c(C)c1 shows inconclusive: 39.8 µM [activator, single point]
